{"source": "patent US20080201871A1", "about": "“ANTIMICROBIAL COLORANTS” (The Regents of the University of California, priority 2003, published 2008)", "tested_on": "E. coli", "experiment": "Antimicrobial efficacy (log reduction) at fixed concentration and contact time", "assay_type": "cell-based, Escherichia coli", "conditions": "E. coli 10^7~10^8 CFU/ml; 10 ppm", "method": "Antimicrobial activity of the agents in aqueous solution was evaluated by a minimum inhibitory concentration (MIC) procedure (Kaminski, J. J., Hyycke, N. M. et al., Pharm. Sci., 65(12):1737 (1976)). MIC refers to the lowest concentration of biocides that prohibit population and reproduction of microorganisms. In this method, 1 mL of an aqueous suspension containing 10^6˜10^7 colony-forming units (CFU)/mL of Staphylococcus aureus (S. aureus, ATCC #12600, Gram-positive) or Escherichia coli (E. coli, K-12, Gram-negative) were placed into 9 mL aqueous solutions containing different concentrations of the agents for a contact time of 24 hours. After the contact, a 100 μL aliquot of the resultant solution was serially diluted by sterilized distilled water to 10^1, 10^2, 10^3, 10^4 and 10^5. 100 μL of the last four dilutions were placed onto a nutrient agar plate and incubated at 37° C. for 24 hours. The same procedure was applied to a distilled water solution without the antimicrobial agents as a control. […]\nTo better study the biocidal rate of these colorants, the antimicrobial efficacy of the colorants in terms of log reduction is assessed against E. Coli under different contact time ranging from 15 minutes to 24 hours. […]", "data": [{"molecule": "CCCCCCCCCCCCCCCC[n+]1ccccc1.[Cl-]", "note": "[CPC, N-cetylpyridinium chloride, reference compound]", "values": [{"measurement": "Antimicrobial Efficacy (log reduction)", "result": 0, "unit": "log reduction"}]}]}
